Some of the results follow. The main result of the screen is listed elsewhere. These columns were measured beside it and carry no call. The list favours compounds with an active or inconclusive main result. Words in brackets tell the shape of the fitted curve; partial curves, single points and poor fits give uncertain potencies.
Assay: qHTS Assay for Lipid Storage Modulators in Drosophila S3 Cells;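 for cell number change: cells counted by Cell Tracker Red CMTPX staining in the red channel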
Details: BODIPY lipid droplet fluorescence, 18-24 h; for cell number change: measured here: cell count max response, cells fed with added oleic acid
Outline: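 Laser-scanning cytometry quantifies lipid droplet accumulation (500–530 nm total intensity; droplet/cell object ratio) in oleic acid-fed (400 uM added) Drosophila S3 cells treated with a concentration series. 20 uM Triacsin C defined 100% inhibition.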

[1] = measured here: lipid fluorescence (Fed channel) AC50, cells fed with added oleic acid
[2] = measured here: cell number channel AC50, cells fed with added oleic acid

CCn1c(-c2ccccc2O)n[nH]c1=S
cell number change: 6.41%

CCNc1ccc(C(=O)OCC(=O)NC(C)c2ccccc2)cc1[N+](=O)[O-] (stereo not drawn)
cell number change: 20.1%
AC50 [1]: 0.326 µM [rising, full curve]

COc1ccc2cc(C(c3nnnn3Cc3ccccc3)N3CCCCCC3)c(=O)[nH]c2c1 (stereo not drawn)
cell number change: -10.9%
AC50 [1]: 1.16 µM [rising, single point]

COCCOc1ccc(C(F)(F)F)cc1NC(=O)COC(=O)Cc1c[nH]c2ccccc12
cell number change: 11.1%
AC50 [2]: 6.51 µM [rising, single point]
AC50 [1]: 6.51 µM [rising, single point]

CN1CCCC(CN2c3ccccc3Sc3ccccc32)C1 (stereo not drawn)
cell number change: -6.4%

CN1CC(=O)N2C(c3cccc([N+](=O)[O-])c3)c3[nH]c4ccccc4c3C[C@H]2C1=O (stereo partly drawn)
cell number change: -25.5%
AC50 [2]: 1.16 µM [falling, full curve, poor fit]

O=C(Cn1cc(C(F)(F)F)ccc1=O)N/N=C/c1ccccc1
cell number change: 68.4%
AC50 [1]: 0.0058 µM [falling, full curve, poor fit]

COc1ccc2occ(C(=O)c3ccccc3)c2c1
AC50 [2]: 4.11 µM [falling, single point]
AC50 [1]: 6.51 µM [falling, single point]

CCCN1C(=O)c2cc(C(=O)NCCc3cccc(C)c3)ccc2C1O (stereo not drawn)
cell number change: -11.7%
AC50 [1]: 0.116 µM [rising, full curve]

COc1ccc(-n2c(-c3ccc(Cl)cc3Cl)n[nH]c2=S)c(OC)c1
cell number change: 3.86%
AC50 [1]: 1.16 µM [rising, full curve]

COCCNC(=O)C(c1ccccc1)N(Cc1cccs1)C(=O)Cn1nnc2ccccc21 (stereo not drawn)
cell number change: 16%
AC50 [1]: 29.1 µM [rising, single point]

CC(Oc1cccc(Br)c1)C(=O)NNC(=O)CCNC(=O)c1ccccc1Cl (stereo not drawn)
cell number change: -5.01%
AC50 [1]: 4.11 µM [falling, full curve]

CCC(C(=O)NC(C)(C)C)N(Cc1ccco1)C(=O)Cn1nnc(-c2ccc(F)cc2)n1 (stereo not drawn)
cell number change: 5.86%
AC50 [2]: 0.231 µM [rising, full curve, poor fit]

O=C(CN1CCCC1)NCC(=O)Nc1ccc(F)cc1
cell number change: -0.34%
AC50 [1]: 6.51 µM [falling, single point]

CCOC(=O)C(NC(=O)c1ccc(Cl)cc1Cl)(Nc1ccc(C)cc1)C(F)(F)F (stereo not drawn)
cell number change: -30.5%
AC50 [2]: 29.1 µM [falling, single point]
AC50 [1]: 20.6 µM [falling, partial curve, poor fit]

O=C(NCC(c1ccco1)N1CCCC1)c1cn(-c2ccccc2)nc1-c1ccc(F)cc1 (stereo not drawn)
cell number change: -18.6%
AC50 [1]: 0.092 µM [rising, full curve, poor fit]

COc1ccc(OC)c(C2=NOC(C(=O)NCc3ccco3)C2)c1 (stereo not drawn)
cell number change: -3.62%
AC50 [1]: 29.1 µM [rising, single point]

O=C(O)CCN1CC2([N+](=O)[O-])C=CC(=O)C([N+](=O)[O-])(C1)C2CC(=O)c1ccccc1 (stereo not drawn)
cell number change: -0.402%
AC50 [1]: 20.6 µM [rising, partial curve]

O=C(NCCN1CCOCC1)c1cc(S(=O)(=O)NCCCN2CCCC2=O)ccc1Cl
cell number change: 3.51%
AC50 [1]: 29.1 µM [falling, single point]

CCOC(=O)c1sc2nc(CSc3ccccc3)nc(N3CCCN(C)CC3)c2c1C
cell number change: -85.6%
AC50 [2]: 18.4 µM [falling, single point]
AC50 [1]: 23.1 µM [falling, single point]

Cc1ccc(-c2nn(-c3ccccc3)cc2/C=C(\C#N)c2cccc(C#N)c2)o1
cell number change: 2.11%
AC50 [1]: 0.13 µM [rising, full curve]

O=C(CSc1ccc(-c2cccs2)nn1)c1cccs1
cell number change: 11.9%
AC50 [2]: 1.16 µM [rising, single point]
AC50 [1]: 0.0326 µM [rising, full curve, poor fit]

O=C(Oc1ccc(OC(=O)N2CCOCC2)cc1)c1ccccc1
cell number change: -35.6%
AC50 [2]: 13 µM [falling, partial curve]

CC(C)(C)C(=O)Nc1ccc(Oc2ccc3c(c2)C(=O)N(c2ccc(O)cc2)C3=O)cc1
cell number change: -9.85%

COC(=O)c1c(C)[nH]c(C(=O)C(C)OC(=O)c2cc(C)oc2C)c1C (stereo not drawn)
cell number change: -47.1%
AC50 [2]: 29.1 µM [falling, single point]
AC50 [1]: 29.1 µM [falling, single point]

CC(=O)Nc1nc(-c2ccccc2)nc(-c2ccccc2OC(C)=O)n1
cell number change: -30.3%
AC50 [2]: 1.64 µM [falling, partial curve, poor fit]
AC50 [1]: 0.00651 µM [rising, full curve, poor fit]

Cc1ccccc1OCC(=O)NCCCNC(=O)c1ccco1
cell number change: 5.42%
AC50 [1]: 25.9 µM [rising, single point]

O=C(NCCN1CCN(c2ccccc2)CC1)Nc1cccc(Cl)c1
cell number change: -9.09%
AC50 [1]: 18.4 µM [falling, partial curve]

Cc1ccc(S(=O)(=O)N2CC(O)CC2C(=O)NCc2ccc3c(c2)OCO3)cc1 (stereo not drawn)
cell number change: -24%
AC50 [2]: 4.61 µM [falling, full curve, poor fit]
AC50 [1]: 20.6 µM [falling, single point]

COc1ccc(S(=O)(=O)n2c([N+](=O)[O-])cnc2C)cc1OC
cell number change: 6.42%
AC50 [1]: 29.1 µM [rising, single point]

Cc1ccc(NC(=O)c2ccccc2Cl)c(Cl)c1
cell number change: 46.9%
AC50 [2]: 9.2 µM [rising, partial curve]
AC50 [1]: 3.26 µM [rising, partial curve]

COc1ccc(C(=O)NCCN2CCCC2)cc1[N+](=O)[O-]
cell number change: 34.5%
AC50 [2]: 0.82 µM [rising, full curve, poor fit]

O=C(Cn1nnc2ccccc2c1=O)Nc1ccc2c(c1)CCC2
cell number change: -0.786%

CCS(=O)(=O)N1CCC(C(=O)Nc2cccc(F)c2)CC1
cell number change: -5.25%
AC50 [1]: 5.17 µM [rising, full curve]

Cc1onc(-c2ccccc2)c1C(=O)Nc1ccccc1NC(=O)c1c(-c2ccccc2)noc1C
cell number change: 17%
AC50 [1]: 0.058 µM [rising, full curve, poor fit]

CCOc1ccc(OCCC(=O)OCC(=O)Nc2ccc3c(c2)OCO3)cc1
cell number change: 4.5%

CCN(CC)Cc1c(O)c(Cl)cc2c(C)cc(=O)oc12
cell number change: -26%
AC50 [1]: 0.731 µM [falling, full curve]

CC(=O)Nc1ccc(NC(=O)CSc2ccc3nnc(-c4cccnc4)n3n2)cc1
cell number change: 11.4%
AC50 [1]: 0.0291 µM [rising, full curve, poor fit]

CCN(CC(=O)Nc1ccc(NC(C)=O)cc1)C(=O)/C=C/c1cccs1
cell number change: 2.46%
AC50 [1]: 0.00517 µM [rising, full curve, poor fit]

COc1ccc(-c2[nH]n(-c3ccc([N+](=O)[O-])cc3)c(=O)c2C=NCc2ccccc2)cc1
cell number change: -14.3%

CCC(C(=O)NCc1ccco1)N(C(=O)CNS(=O)(=O)c1ccccc1)C1CCCCC1 (stereo not drawn)
cell number change: -55.9%
AC50 [2]: 32.6 µM [falling, single point]

COc1ccccc1NC(=O)N1CCC(NC(=O)C(Cc2ccccc2F)NC(C)=O)CC1 (stereo not drawn)
cell number change: 10.3%
AC50 [1]: 0.116 µM [falling, single point]

COc1cccc(C(=O)NC(=S)NCc2ccco2)c1
cell number change: 36.1%
AC50 [2]: 11.6 µM [rising, partial curve]
AC50 [1]: 1.84 µM [rising, partial curve]

COc1ccc(CCC(=O)NC2CCCc3ccccc32)cc1OC (stereo not drawn)
cell number change: 4.96%
AC50 [1]: 29.1 µM [rising, partial curve, poor fit]

CCc1ccc(Nc2cc(=O)n(C3CCCCC3)c(=O)[nH]2)cc1
cell number change: 168%
AC50 [2]: 23.1 µM [rising, single point]
AC50 [1]: 4.61 µM [rising, partial curve]

Cc1ccsc1C(=O)N1CCCC(CCC(=O)NCc2ccccc2F)C1 (stereo not drawn)
cell number change: -29.9%
AC50 [1]: 18.4 µM [falling, partial curve, poor fit]

Cc1c(NC(=O)c2cc3ccccc3oc2=O)c(=O)n(-c2ccccc2)n1C
AC50 [1]: 6.51 µM [falling, single point]

Cc1ccc(-c2csc(=Nc3cccnc3)n2CCCn2ccnc2)cc1C
cell number change: 33.3%
AC50 [2]: 32.6 µM [rising, single point]
AC50 [1]: 1.46 µM [rising, partial curve]

O=C(c1cc[n+]([O-])cc1)N1CCCC(N2CCN(c3cccc(C(F)(F)F)c3)CC2)C1 (stereo not drawn)
cell number change: -32.5%

Cn1c(NCCO)nc2c1c(=O)n(Cc1ccc(F)cc1)c(=O)n2C
cell number change: 12.2%
AC50 [1]: 5.8 µM [rising, partial curve]

COc1ccc(C(=O)OCC(=O)c2c[nH]c3ccccc23)cc1OC
cell number change: 23.7%
AC50 [1]: 20.6 µM [rising, partial curve, poor fit]

COc1ccc(-n2nc3cc(C)c(NC(=S)NC(=O)c4ccccc4C)cc3n2)cc1
cell number change: 42.3%
AC50 [2]: 29.1 µM [rising, single point]

Cc1ccc(O)c(C2=NNC(O)(C(F)(F)F)C2)c1 (stereo not drawn)
cell number change: -57.5%
AC50 [2]: 20.6 µM [falling, single point]

CCc1nnc(NC(=O)CCC(=O)N2CCN(Cc3ccc(F)cc3)CC2)s1
cell number change: -5.2%
AC50 [1]: 0.231 µM [rising, full curve, poor fit]

CCOC(=O)CSc1nc2cc(C(=O)NCC3CCCO3)ccc2c(=O)n1Cc1ccco1 (stereo not drawn)
cell number change: -29%
AC50 [1]: 2.59 µM [rising, partial curve]

COC(=O)c1cc(-c2ccc(S(=O)(=O)N3CCCC3)cc2)c(C(F)(F)F)s1
cell number change: 19.6%
AC50 [1]: 23.1 µM [rising, single point]

C=CCn1c(NC(=O)CC)c(C(=O)OCC)sc1=S
cell number change: 42.4%
AC50 [2]: 11.6 µM [rising, partial curve]
AC50 [1]: 10.3 µM [rising, partial curve]

From PubChem BioAssay AID2685 (National Center for Advancing Translational Sciences (NCATS), 2010)
